In the supplement of paper PMC12819154, “High-throughput peptide-centric local stability assay extends protein–ligand identification to membrane proteins, tissues and bacteria” (Nature Structural & Molecular Biology, 2025):
The list shows a part of the results. Small differences around the control level are noise.

Chains of the proteins cited; added tags and fusions are not shown. Lines headed by an entry give the natural chain unless they say otherwise; changes in a name come on top.
UniProt Q8BYB9: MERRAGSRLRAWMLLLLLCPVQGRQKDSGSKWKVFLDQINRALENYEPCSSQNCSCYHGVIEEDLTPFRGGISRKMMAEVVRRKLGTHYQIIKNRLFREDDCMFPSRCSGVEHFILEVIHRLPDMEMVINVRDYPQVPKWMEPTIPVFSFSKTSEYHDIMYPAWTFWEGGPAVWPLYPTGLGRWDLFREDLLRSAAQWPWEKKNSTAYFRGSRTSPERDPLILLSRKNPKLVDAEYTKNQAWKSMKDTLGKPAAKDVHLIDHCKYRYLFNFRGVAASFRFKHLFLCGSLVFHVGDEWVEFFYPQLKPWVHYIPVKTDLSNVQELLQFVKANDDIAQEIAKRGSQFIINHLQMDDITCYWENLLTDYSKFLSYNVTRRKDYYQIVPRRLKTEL
UniProt Q8C561: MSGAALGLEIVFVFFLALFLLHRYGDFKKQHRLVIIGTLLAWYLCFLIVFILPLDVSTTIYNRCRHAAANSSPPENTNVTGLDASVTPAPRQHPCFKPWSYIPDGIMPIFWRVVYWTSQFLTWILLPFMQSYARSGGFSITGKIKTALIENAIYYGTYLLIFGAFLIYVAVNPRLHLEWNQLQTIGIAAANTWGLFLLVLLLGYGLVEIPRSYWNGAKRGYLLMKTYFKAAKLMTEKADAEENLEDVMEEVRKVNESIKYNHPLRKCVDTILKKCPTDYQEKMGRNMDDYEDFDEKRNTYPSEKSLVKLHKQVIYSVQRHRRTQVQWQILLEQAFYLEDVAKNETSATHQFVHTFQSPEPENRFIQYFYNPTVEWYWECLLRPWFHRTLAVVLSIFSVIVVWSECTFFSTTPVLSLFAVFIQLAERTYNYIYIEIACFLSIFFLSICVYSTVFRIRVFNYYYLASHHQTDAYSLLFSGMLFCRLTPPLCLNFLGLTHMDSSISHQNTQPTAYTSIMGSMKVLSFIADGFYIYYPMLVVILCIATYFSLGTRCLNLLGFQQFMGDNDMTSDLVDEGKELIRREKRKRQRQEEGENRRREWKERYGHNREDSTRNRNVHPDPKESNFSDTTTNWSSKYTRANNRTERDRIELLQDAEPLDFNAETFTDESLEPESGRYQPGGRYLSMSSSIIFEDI
UniProt Q8C052: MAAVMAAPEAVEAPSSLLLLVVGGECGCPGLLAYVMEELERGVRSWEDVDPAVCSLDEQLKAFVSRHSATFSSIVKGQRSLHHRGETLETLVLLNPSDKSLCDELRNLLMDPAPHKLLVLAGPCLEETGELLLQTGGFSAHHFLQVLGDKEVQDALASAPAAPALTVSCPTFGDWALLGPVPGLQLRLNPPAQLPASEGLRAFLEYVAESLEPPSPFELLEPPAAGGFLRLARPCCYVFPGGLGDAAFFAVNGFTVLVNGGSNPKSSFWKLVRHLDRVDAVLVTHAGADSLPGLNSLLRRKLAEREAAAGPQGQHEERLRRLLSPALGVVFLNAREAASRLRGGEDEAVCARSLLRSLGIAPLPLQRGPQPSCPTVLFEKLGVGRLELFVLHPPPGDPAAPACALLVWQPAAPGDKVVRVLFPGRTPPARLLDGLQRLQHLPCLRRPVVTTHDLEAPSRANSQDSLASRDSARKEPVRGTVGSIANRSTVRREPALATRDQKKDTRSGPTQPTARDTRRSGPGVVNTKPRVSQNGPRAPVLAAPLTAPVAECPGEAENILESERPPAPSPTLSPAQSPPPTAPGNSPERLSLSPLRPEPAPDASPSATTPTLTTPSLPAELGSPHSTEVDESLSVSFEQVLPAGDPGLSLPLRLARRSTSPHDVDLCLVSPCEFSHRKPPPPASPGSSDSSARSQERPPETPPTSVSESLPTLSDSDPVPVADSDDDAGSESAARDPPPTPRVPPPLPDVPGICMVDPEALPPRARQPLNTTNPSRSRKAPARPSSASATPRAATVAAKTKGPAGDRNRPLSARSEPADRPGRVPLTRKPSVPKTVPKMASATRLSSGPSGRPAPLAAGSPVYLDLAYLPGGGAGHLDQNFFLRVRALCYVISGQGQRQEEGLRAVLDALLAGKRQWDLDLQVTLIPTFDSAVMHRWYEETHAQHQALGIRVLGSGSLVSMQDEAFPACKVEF
UniProt Q8BYH8: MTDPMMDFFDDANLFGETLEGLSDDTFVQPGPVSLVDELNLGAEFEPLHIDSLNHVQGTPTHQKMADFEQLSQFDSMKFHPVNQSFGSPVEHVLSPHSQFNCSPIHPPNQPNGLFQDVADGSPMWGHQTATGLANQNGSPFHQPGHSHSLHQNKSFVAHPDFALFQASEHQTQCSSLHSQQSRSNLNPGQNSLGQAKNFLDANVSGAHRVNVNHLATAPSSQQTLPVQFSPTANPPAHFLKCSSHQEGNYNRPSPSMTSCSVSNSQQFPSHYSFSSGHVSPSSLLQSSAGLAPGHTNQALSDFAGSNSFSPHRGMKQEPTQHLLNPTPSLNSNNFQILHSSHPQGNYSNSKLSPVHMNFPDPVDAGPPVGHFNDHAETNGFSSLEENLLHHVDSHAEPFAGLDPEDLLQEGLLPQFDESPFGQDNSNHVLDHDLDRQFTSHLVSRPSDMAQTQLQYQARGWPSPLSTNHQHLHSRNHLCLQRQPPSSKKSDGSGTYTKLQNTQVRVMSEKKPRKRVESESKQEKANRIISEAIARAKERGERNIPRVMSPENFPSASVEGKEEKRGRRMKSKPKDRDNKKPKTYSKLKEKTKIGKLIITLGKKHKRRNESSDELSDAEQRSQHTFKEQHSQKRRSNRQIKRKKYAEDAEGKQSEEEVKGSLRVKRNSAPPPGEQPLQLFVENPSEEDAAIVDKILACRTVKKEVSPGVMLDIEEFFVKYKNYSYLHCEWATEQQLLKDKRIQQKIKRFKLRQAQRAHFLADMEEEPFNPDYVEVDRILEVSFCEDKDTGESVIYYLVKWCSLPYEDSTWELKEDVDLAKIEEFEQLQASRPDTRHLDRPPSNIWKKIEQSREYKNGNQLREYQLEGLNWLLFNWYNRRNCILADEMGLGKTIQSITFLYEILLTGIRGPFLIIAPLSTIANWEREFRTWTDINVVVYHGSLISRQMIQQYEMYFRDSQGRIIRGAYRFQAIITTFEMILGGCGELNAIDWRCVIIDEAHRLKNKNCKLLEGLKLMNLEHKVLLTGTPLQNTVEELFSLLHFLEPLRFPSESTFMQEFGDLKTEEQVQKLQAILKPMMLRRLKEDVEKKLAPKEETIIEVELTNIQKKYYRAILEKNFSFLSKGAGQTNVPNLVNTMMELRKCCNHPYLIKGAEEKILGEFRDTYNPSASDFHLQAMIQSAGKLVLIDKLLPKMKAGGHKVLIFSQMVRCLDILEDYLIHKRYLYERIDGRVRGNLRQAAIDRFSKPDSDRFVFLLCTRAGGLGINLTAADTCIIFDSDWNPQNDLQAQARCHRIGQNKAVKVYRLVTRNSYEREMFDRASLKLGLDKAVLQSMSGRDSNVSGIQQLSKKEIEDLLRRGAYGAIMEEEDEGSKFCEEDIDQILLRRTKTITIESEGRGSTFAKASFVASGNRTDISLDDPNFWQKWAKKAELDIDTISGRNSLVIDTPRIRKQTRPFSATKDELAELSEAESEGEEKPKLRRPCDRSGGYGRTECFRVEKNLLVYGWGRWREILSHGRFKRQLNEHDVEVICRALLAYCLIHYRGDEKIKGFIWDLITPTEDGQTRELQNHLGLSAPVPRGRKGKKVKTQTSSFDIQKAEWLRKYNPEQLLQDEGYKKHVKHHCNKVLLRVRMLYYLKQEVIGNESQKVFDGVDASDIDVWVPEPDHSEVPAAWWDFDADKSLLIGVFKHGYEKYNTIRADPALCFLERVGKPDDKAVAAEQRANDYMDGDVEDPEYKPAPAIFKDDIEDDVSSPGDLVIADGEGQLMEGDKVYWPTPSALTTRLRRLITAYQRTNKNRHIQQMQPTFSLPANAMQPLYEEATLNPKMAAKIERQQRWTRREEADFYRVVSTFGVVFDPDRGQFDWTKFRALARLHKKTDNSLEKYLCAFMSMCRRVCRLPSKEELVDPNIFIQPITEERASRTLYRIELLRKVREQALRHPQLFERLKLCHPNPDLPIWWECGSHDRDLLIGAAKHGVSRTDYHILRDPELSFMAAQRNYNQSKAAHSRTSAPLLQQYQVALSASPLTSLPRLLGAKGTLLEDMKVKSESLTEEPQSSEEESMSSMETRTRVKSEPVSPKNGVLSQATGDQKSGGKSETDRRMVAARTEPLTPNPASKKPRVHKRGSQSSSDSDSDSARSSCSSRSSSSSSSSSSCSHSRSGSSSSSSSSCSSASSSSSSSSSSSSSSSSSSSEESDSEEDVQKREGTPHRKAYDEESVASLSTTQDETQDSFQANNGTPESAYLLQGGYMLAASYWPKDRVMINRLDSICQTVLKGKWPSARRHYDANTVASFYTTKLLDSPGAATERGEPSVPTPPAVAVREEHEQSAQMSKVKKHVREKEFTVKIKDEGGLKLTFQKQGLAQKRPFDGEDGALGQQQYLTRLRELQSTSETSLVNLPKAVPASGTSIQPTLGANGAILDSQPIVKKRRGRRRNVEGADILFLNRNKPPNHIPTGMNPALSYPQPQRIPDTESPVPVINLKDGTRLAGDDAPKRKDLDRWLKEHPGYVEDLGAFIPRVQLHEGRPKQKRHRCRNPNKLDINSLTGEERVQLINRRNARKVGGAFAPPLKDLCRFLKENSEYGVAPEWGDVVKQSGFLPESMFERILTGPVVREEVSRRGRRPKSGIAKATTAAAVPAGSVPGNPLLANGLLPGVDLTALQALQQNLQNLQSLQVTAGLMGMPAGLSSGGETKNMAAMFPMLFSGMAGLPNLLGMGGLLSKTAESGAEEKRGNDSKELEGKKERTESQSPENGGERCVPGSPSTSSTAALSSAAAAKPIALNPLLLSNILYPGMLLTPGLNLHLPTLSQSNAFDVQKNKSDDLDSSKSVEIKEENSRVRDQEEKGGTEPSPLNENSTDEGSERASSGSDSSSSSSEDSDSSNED
UniProt Q8BZM1: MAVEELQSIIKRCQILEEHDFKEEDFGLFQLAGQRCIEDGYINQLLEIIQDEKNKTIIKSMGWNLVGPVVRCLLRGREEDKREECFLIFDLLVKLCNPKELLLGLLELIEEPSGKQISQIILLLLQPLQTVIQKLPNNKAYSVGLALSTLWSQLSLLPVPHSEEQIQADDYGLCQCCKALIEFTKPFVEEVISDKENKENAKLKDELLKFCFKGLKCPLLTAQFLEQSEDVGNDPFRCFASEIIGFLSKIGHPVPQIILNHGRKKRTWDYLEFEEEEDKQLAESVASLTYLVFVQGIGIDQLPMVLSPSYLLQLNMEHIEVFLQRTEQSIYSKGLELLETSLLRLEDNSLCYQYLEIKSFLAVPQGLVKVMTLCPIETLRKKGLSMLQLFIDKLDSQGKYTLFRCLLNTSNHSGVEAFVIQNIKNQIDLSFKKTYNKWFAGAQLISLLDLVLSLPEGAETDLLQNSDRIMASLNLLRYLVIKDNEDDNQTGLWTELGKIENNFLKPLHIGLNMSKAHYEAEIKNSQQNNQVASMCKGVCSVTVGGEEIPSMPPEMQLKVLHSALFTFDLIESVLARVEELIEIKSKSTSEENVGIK
UniProt Q8C1A5, whole entry: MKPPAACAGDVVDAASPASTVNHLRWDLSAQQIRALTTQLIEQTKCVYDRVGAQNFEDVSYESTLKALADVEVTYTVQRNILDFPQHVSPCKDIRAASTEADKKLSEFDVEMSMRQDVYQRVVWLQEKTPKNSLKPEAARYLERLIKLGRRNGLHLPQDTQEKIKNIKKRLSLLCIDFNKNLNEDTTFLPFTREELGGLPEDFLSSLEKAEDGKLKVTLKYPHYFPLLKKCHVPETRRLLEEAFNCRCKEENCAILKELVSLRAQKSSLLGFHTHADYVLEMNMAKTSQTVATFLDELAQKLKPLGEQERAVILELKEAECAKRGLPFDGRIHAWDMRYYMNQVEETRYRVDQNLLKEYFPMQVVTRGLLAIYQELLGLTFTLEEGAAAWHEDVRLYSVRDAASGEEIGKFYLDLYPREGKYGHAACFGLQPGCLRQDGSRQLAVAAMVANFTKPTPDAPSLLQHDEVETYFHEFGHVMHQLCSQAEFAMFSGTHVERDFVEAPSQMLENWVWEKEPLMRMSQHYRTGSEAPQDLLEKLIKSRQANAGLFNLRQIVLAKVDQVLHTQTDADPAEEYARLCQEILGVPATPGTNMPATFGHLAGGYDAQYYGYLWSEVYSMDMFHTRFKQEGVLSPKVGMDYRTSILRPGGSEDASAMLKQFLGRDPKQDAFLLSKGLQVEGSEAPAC

These targets were tested with CN[C@@H]1C[C@H]2O[C@@](C)([C@@H]1OC)n1c3ccccc3c3c4c(c5c6ccccc6n2c5c31)C(=O)NC4 [staurosporine] (assay: log2 fold change of tryptic peptide abundance, ligand vs vehicle (limited proteolysis) (log2 ratio); higher = more trypsin-susceptible (destabilized)). Conditions: ligand concentration: 20 uM; sample: mouse liver crude lysate; replicate design: treated separately.
“UniProt Q8C2A2 (peptide sequence: SHGPKDFLPDGSEAQAER, peptide start residue: 37)” gave a log2 fold change of 0.554. In the case of “UniProt Q8C753 (peptide sequence: KAVHTDFSR, peptide start residue: 86)”, the log2 fold change is reported as -0.592. “UniProt Q8BYB9 (peptide sequence: TSPERDPLILLSR, peptide start residue: 214)” gave a log2 fold change of 0.174. Target “UniProt Q8C561 (peptide sequence: NMDDYEDFDEKR, peptide start residue: 286)” has a log2 fold change of -0.141. “UniProt Q8C052 (peptide sequence: ANSQDSLASR, peptide start residue: 460)” was tested, and the log2 fold change was -0.247. With “UniProt Q8BYH8 (peptide sequence: ELQNHLGLSAPVPR, peptide start residue: 1566)” the log2 fold change was 0.258. “UniProt Q8C4Y3 (peptide sequence: LVMADKELYR, peptide start residue: 130)” gave a log2 fold change of 0.406. Target “UniProt Q8BY46 (peptide sequence: VAVEHSYR, peptide start residue: 177)” has a log2 fold change of -0.0122. With “UniProt Q8C0Q9 (peptide sequence: TFLDNLVNFEK, peptide start residue: 746)” the log2 fold change was -0.0697. With “UniProt Q8BZM1 (peptide sequence: TEQSIYSK, peptide start residue: 326)” the log2 fold change was -0.397. “UniProt Q8C1A5 (peptide sequence: TSILRPGGSEDASAMLK, peptide start residue: 643)” was tested, and the log2 fold change was -0.525.
